Laboratory results from paper PMC7819943, “Rice protein-binding microarrays: a tool to detect cis-acting elements near promoter regions in rice”.
The list shows a part of the results.

Sequences of proteins named here, by UniProt entry; tags and fusion partners are left off.
UniProt Q0JBA9, entry or part of it: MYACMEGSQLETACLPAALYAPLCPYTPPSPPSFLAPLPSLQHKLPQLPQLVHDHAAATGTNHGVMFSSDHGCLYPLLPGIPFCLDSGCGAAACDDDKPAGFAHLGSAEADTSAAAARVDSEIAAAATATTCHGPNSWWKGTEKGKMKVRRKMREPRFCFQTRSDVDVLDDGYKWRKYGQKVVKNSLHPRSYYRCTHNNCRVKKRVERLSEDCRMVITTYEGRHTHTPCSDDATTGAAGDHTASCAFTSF

Each sequence was assayed against OsWRKY34 (Oryza sativa, UniProt Q0JBA9 1-250) (assay: protein-binding microarray (RPBM); PBS, 2% BSA, 51.3 ng/ul salmon testes DNA, 50 uM zinc acetate, 200 nM TF, 25 C, 1 h; high values mean tight binding). Conditions: protein: recombinant; tags: N-terminal polyhistidine and DsRed monomer fusion (pET32a); label: CyDye5-dUTP incorporated in the synthesized complementary strand; 3' TTTTT single-stranded linker to array surface; dsDNA, one strand shown.
Outline: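 Binding signal is reported as fluorescence intensity per feature (arbitrary units) from an Axon 4000B scanner. Incubation used 200 nM of each Ni–NTA-purified, N-terminally polyhistidine- and DsRed-fused transcription factor from E. coli BL21-CodonPlus on a double-stranded custom Agilent array for 1 h at 25 °C, with 50 µM zinc acetate in the buffer, followed by washing.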
“GCTTACCTCCACAATCACACTGAGCTAACCTCCATTTCCACGGAGTCACCTAGTGCAG” was tested, and the binding signal was 9470 fluorescence intensity (a.u.). “GTCCGACAAATTTACTTTCACGCTTTACCCTTTCTCTTTTCGGAGTCACCTAGTGCAG” was tested, and the binding signal was 10100 fluorescence intensity (a.u.). With “GACAGCGTGAATTCGAGGGATTTCTTGGCTGGTTTGGTTGCGGAGTCACCTAGTGCAG” the binding signal was 10100 fluorescence intensity (a.u.). With “CTTTTCTCTCCCTATTTCTCAGGGATCATTCTGTAATTTCCGGAGTCACCTAGTGCAG” the binding signal was 8840 fluorescence intensity (a.u.). “GAACATAACCAACTATAACTTCATTCATTCATACAAATATCGGAGTCACCTAGTGCAG” was tested, and the binding signal was 8260 fluorescence intensity (a.u.). For “TCTGGTGTTTTCAGTTCTTCATGTCATTTTCATTTTATTGCGGAGTCACCTAGTGCAG”, the binding signal was 11100 fluorescence intensity (a.u.). With “ACCCAGTGGCAGGCATCTTTTCATTATCTGATTAGTTTGTCGGAGTCACCTAGTGCAG” the binding signal was 8070 fluorescence intensity (a.u.). For “AAGTCCATTTTCGATCTAGAAGCTCACAGTTTCTTTTCTACGGAGTCACCTAGTGCAG”, the binding signal was 9000 fluorescence intensity (a.u.). In the case of “GGGTTTGGGGATCGATTGATTTATAGGCTTTTTTGTTTTTCGGAGTCACCTAGTGCAG”, the binding signal was 8810 fluorescence intensity (a.u.). For “AATGATTACACTTACCCTTTGTTACCGAAGTTTTACTTTACGGAGTCACCTAGTGCAG”, the binding signal was 8050 fluorescence intensity (a.u.). In the case of “GTACTTGCTTAAGCTCCTCTTCTTCCCTTGACTCCTCTTCCGGAGTCACCTAGTGCAG”, the binding signal was 8110 fluorescence intensity (a.u.). For “TTTTCCTAGCAGACTCATCATTTTGCTCACCTGCTCTGTGCGGAGTCACCTAGTGCAG”, the binding signal was 8150 fluorescence intensity (a.u.). “TTATATATATTACATGTTAATACAACTTCTTATATTTTTTCGGAGTCACCTAGTGCAG” was tested, and the binding signal was 10700 fluorescence intensity (a.u.). In the case of “GACTTGTTCTTTTTGTTGTACGTGCGTGTCAGGGTCAAACCGGAGTCACCTAGTGCAG”, the binding signal was 9710 fluorescence intensity (a.u.). “CTAATCAGTGATAAACACACACTTTAAGCCACGTATCTTTCGGAGTCACCTAGTGCAG” was tested, and the binding signal was 8050 fluorescence intensity (a.u.). For “ATGCACTGCACCTGGAGCTTCTTTCTTCTTTTCTTCCGGCCGGAGTCACCTAGTGCAG”, the binding signal was 8780 fluorescence intensity (a.u.). With “AATCACCTCGACCTATGAAATTACTCAGCTTGCAGCAATGCGGAGTCACCTAGTGCAG” the binding signal was 8220 fluorescence intensity (a.u.). For “GAGGCGGAGGAGGGGCGGCGCCAGCATCATTGGCGGGCTTCGGAGTCACCTAGTGCAG”, the binding signal was 9080 fluorescence intensity (a.u.). In the case of “AATACTCTTGAGCCCTCTAATATCTTGGAACATTTTTTTTCGGAGTCACCTAGTGCAG”, the binding signal was 8120 fluorescence intensity (a.u.). “CCGACTCTCCGCCCTCGTAATCACGCGCTAATCCGTCGTTCGGAGTCACCTAGTGCAG” was tested, and the binding signal was 10400 fluorescence intensity (a.u.). In the case of “TCAAGTTCTTGTGAGTTGTTTGGCTTGATTGGCTTGACTCCGGAGTCACCTAGTGCAG”, the binding signal was 12000 fluorescence intensity (a.u.). With “CTCTCATCTCAGCCTCTCACTTGAACTGCAGATATATATACGGAGTCACCTAGTGCAG” the binding signal was 8140 fluorescence intensity (a.u.). “CGTCCGTCTCCATCTGACACCTCCCAGTGCTTGCGCCCATCGGAGTCACCTAGTGCAG” was tested, and the binding signal was 8030 fluorescence intensity (a.u.). “ACATTCTCTGTTGCCGATTTGTTCGCTTGCCGTGAGTATCCGGAGTCACCTAGTGCAG” was tested, and the binding signal was 11400 fluorescence intensity (a.u.). For “GTTTCTTTTCTCCGTTTCTCGCCTCGTCCCCTTCCACACGCGGAGTCACCTAGTGCAG”, the binding signal was 9070 fluorescence intensity (a.u.). With “AAATATCATACGTTATTAGGTTTGTTTATATTTATATTTTCGGAGTCACCTAGTGCAG” the binding signal was 8940 fluorescence intensity (a.u.). With “GCGTTAACTTTTTTAAATATGTTTTACTGTTCGTCTTATTCGGAGTCACCTAGTGCAG” the binding signal was 9520 fluorescence intensity (a.u.). For “GCAGTCTTACATATTCATGTCACTACGCAGCAACGGACAACGGAGTCACCTAGTGCAG”, the binding signal was 9150 fluorescence intensity (a.u.). With “GACACTTTCACTAATCACAGCTCACTTCAGCTCGCTCGCTCGGAGTCACCTAGTGCAG” the binding signal was 9790 fluorescence intensity (a.u.). For “CCTCGTCCACCAACGCCGAGGCCATCGCCACCCAGCCCTACGGAGTCACCTAGTGCAG”, the binding signal was 8860 fluorescence intensity (a.u.). “ATACCACCTCGCCCACCCTCCGGTATATATTGAAACTATTCGGAGTCACCTAGTGCAG” was tested, and the binding signal was 8600 fluorescence intensity (a.u.). For “CCACTTCTTTTTTTCCCGCTGCGCCGTGGGCCCCACTACTCGGAGTCACCTAGTGCAG”, the binding signal was 11400 fluorescence intensity (a.u.). “GCGTGCGTGTGCGTGTCCACCCTGATCGCCGTTGGATCTCCGGAGTCACCTAGTGCAG” was tested, and the binding signal was 8260 fluorescence intensity (a.u.). With “GAACCCATCTTTTCTTTGATCCCCAATCCTCTTTTGCCGACGGAGTCACCTAGTGCAG” the binding signal was 10800 fluorescence intensity (a.u.). With “GCAAACGATGTCTCTCGACAGTATTGTGTTCTGTTTTAGCCGGAGTCACCTAGTGCAG” the binding signal was 8620 fluorescence intensity (a.u.). With “TCAATTGTCATGCGTTCGTTTTTCTTTCTCGTTGCCTTTCCGGAGTCACCTAGTGCAG” the binding signal was 10800 fluorescence intensity (a.u.). With “ACTCCTCTCTGTCTTCTCTGTGTGGGTGAGGCGGGGCATGCGGAGTCACCTAGTGCAG” the binding signal was 14600 fluorescence intensity (a.u.). For “CCTCCATGCTCGCCATCGCCTGCCTTCCTGCCTTCAAACTCGGAGTCACCTAGTGCAG”, the binding signal was 8570 fluorescence intensity (a.u.). With “CACGCACCGCCCATGCGTCCTTATCCACCCACCTCTCCACCGGAGTCACCTAGTGCAG” the binding signal was 8240 fluorescence intensity (a.u.). “CTCCGCCCGCACCCGTCGCTGCTCTGTGCCGCACTCGCCGCGGAGTCACCTAGTGCAG” was tested, and the binding signal was 8580 fluorescence intensity (a.u.). In the case of “ACTTTGTTGTTGATGACTTTTTCAGTTGAAGTCGTTCACTCGGAGTCACCTAGTGCAG”, the binding signal was 8840 fluorescence intensity (a.u.). In the case of “ACCACGCCACGCCCGCCGCCACCTGCGCCGCGCTCGCCCCCGGAGTCACCTAGTGCAG”, the binding signal was 8160 fluorescence intensity (a.u.).
